Assay [1] addresses Hsc70, endogenous in mouse heart (mouse (endogenous in heart)) (UniProt P63017). As to the kind of experiment: co-IP; mouse heart lysate, mPDE5A/oe mice and littermate controls, with and without MI; Hsc70 as bait, detection with CHIP and Hsc70 antibodies.
The target of assay [2] is Hsc70, endogenous in neonatal rat cardiomyocytes (rat (endogenous in neonatal rat cardiomyocytes)) (UniProt P63018). As to the kind of experiment: co-IP; lysate of neonatal rat cardiomyocytes expressing Myc-tagged WT, S20E or S20A CHIP, with or without simulated ischemia; Hsc70 as bait, Myc-CHIP detected.
The target of assay [3] is Myc-tagged CHIP (carboxyl terminus of Hsc70-interacting protein), expressed in HEK293 cells (UniProt Q9WUD1). Kind of assay: co-IP; Myc-tagged CHIP expressed in HEK293 cells as bait; PKG1α detected by blot; three bead washes.

Sequences of proteins named here, by UniProt entry; tags and fusion partners are left off. A change or cut given only in a name is not applied to a line headed by its entry.
UniProt P63017: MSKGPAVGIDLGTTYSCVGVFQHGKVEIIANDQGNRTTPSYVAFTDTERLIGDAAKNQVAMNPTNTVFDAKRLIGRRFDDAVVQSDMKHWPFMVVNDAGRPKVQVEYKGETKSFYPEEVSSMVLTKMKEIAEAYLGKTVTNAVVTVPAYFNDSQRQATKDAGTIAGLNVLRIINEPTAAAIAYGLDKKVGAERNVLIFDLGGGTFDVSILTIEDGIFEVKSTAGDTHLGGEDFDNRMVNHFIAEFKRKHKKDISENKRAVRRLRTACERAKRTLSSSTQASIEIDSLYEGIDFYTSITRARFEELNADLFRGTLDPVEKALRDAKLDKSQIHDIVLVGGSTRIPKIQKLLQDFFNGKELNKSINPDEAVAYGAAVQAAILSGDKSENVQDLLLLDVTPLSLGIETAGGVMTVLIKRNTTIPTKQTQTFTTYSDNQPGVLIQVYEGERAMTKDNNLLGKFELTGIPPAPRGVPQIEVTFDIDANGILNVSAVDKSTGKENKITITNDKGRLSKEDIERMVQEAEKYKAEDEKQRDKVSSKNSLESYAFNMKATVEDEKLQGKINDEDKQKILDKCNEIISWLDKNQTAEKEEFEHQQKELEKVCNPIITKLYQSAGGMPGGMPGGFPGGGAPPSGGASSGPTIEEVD
UniProt P63018: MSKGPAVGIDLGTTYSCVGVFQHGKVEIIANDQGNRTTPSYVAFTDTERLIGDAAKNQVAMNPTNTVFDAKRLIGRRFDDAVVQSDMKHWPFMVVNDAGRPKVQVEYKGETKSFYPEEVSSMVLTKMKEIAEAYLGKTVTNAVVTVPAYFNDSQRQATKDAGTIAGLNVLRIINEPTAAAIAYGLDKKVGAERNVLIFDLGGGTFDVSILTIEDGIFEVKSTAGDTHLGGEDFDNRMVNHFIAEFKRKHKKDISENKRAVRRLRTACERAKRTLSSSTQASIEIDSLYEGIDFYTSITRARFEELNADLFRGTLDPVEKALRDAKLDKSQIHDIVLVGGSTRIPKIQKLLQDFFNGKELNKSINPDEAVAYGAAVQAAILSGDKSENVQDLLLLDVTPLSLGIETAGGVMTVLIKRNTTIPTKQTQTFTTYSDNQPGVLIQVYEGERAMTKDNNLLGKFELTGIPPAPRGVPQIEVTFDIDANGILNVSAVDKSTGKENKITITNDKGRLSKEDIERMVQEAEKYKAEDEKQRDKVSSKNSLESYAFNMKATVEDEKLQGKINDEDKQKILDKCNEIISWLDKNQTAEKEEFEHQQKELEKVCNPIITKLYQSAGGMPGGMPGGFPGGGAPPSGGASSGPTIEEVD
UniProt Q9WUD1: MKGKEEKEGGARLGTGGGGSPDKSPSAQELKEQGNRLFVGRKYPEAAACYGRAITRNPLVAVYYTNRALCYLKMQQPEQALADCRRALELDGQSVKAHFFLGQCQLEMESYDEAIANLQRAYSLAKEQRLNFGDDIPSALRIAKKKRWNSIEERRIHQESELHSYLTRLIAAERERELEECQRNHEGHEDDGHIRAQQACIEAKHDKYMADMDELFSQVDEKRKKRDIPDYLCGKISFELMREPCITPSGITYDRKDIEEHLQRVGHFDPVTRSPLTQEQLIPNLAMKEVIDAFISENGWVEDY

Results are given in words; binding and its absence hold for the method and conditions named. Binding seen in cells or lysates may run through a third protein. Some results given as binding are weak or reduced against the parent protein; the word gives no strength.

Turning to “CHIP, endogenous in mouse heart (from UniProt Q9WUD1 1-304)”, in assay [1], the binding result is listed as “binds”.
“Myc-tagged CHIP S20E, adenovirus-expressed in neonatal rat cardiomyocytes (from UniProt Q9WUD1 1-304)”: the binding result in assay [2] is given as “binds”.
For “Myc-tagged CHIP WT, adenovirus-expressed in neonatal rat cardiomyocytes (from UniProt Q9WUD1 1-304)”, the binding entry in assay [2] was “binds”.

B1: Protein kinase G 1 alpha (PKG1α), in HEK293 cells (enzyme, UniProt Q13976 1-671)
chain: MSELEEDFAKILMLKEERIKELEKRLSEKEEEIQELKRKLHKCQSVLPVPSTHIGPRTTRAQGISAEPQTYRSFHDLRQAFRKFTKSERSKDLIKEAILDNDFMKNLELSQIQEIVDCMYPVEYGKDSCIIKEGDVGSLVYVMEDGKVEVTKEGVKLCTMGPGKVFGELAILYNCTRTATVKTLVNVKLWAIDRQCFQTIMMRTGLIKHTEYMEFLKSVPTFQSLPEEILSKLADVLEETHYENGEYIIRQGARGDTFFIISKGTVNVTREDSPSEDPVFLRTLGKGDWFGEKALQGEDVRTANVIAAEAVTCLVIDRDSFKHLIGGLDDVSNKAYEDAEAKAKYEAEAAFFANLKLSDFNIIDTLGVGGFGRVELVQLKSEESKTFAMKILKKRHIVDTRQQEHIRSEKQIMQGAHSDFIVRLYRTFKDSKYLYMLMEACLGGELWTILRDRGSFEDSTTRFYTACVVEAFAYLHSKGIIYRDLKPENLILDHRGYAKLVDFGFAKKIGFGKKTWTFCGTPEYVAPEIILNKGHDISADYWSLGILMYELLTGSPPFSGPDPMKTYNIILRGIDMIEFPKKIAKNAANLIKKLCRDNPSERLGNLKNGVKDIQKHKWFEGFNWEGLRKGTLTPPIIPSVASPTDTSNFDSFPEDNDEPPPDDNSGWDIDF
For B1, the binding result in assay [3] is listed as “binds”.

(Values after article PMC7575552.)
